In PubChem BioAssay AID2685 (National Center for Advancing Translational Sciences (NCATS), 2010):
The list shows a part of the results. Further columns of the screen follow, without active or inactive calls. Most of these compounds were active or inconclusive in the main read-out, so they are no random draw. The note in brackets gives the kind of curve behind each potency; many fits are weak.

Assay: qHTS Assay for Lipid Storage Modulators in Drosophila S3 Cells;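 for cell number change: cells counted by Cell Tracker Red CMTPX staining in the red channel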
Settings: BODIPY lipid droplet fluorescence, 18-24 h; for cell number change: measured here: cell count max response, cells fed with added oleic acid
Procedure, shortened: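 Laser-scanning cytometry quantifies lipid droplet accumulation (500–530 nm total intensity; droplet/cell object ratio) in oleic acid-fed (400 uM added) Drosophila S3 cells treated with a concentration series. 20 uM Triacsin C defined 100% inhibition.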

[1] = measured here: lipid fluorescence (Fed channel) AC50, cells fed with added oleic acid
[2] = measured here: cell number channel AC50, cells fed with added oleic acid

| Structure (SMILES) | cell number change [%] | AC50 [1] | AC50 [2] |
| --- | --- | --- | --- |
| CCN(CC)CC(O)CN(c1ccccc1)S(=O)(=O)c1ccc2ccccc2c1 (stereo unspecified) | -0.0066 | 0.13 µM [falling, full curve, poor fit] |  |
| C(#CCN1CCCC1)CC(c1ccccc1)c1ccccc1 | 10.6 | 0.103 µM [rising, full curve, poor fit] |  |
| C=CCn1c(SCC(=O)Nc2ccc(OC)cc2)nnc1-c1cnccn1 | -20.9 | 14.6 µM [rising, single point] |  |
| COc1cc(/C=N/Nc2ccc(Cl)c(C(=O)O)c2)ccc1OC(=O)c1ccco1 | -22.5 |  | 3.26 µM [falling, full curve, poor fit] |
| N#C/C(=C\c1ccc(OCc2cccc(C(=O)O)c2)cc1)C(=O)NCc1ccco1 | 4.38 | 0.326 µM [rising, full curve, poor fit] |  |
| COc1ccc(Cl)cc1C(=O)Nc1ccc2c(c1)OCCO2 | -6.32 | 29.1 µM [falling, single point] |  |
| COc1ccc(CCn2c(C)cc(C(=O)COC(=O)c3ccc(NC(=O)CC#N)cc3)c2C)cc1 | 47.2 |  | 16.4 µM [rising, partial curve] |
| CC(CCc1ccccc1)NC(=O)c1ccccc1Cl (stereo unspecified) | 13.1 | 14.6 µM [rising, single point] |  |
| COc1ccccc1N(C(=O)c1ccco1)C(C(=O)NC1CCCC1)c1ccncc1 (stereo unspecified) | 30 |  |  |
| Cc1ccc(F)c([C@H]2C3C=CCC(c4ccccc4)C3C(=O)N2Cc2ccccc2)c1 (stereo partly specified) | -0.818 | 0.411 µM [rising, full curve] |  |
| CSCCC(NC(=O)c1ccccc1Cl)C(=O)N1CCN(C(c2ccccc2)c2ccccc2)CC1 (stereo unspecified) | -26.2 | 29.1 µM [falling, single point] |  |
| O=C(c1cc(F)c(F)cc1Cl)N1CCN(c2ccc([N+](=O)[O-])c3ncccc23)CC1 | 5.34 |  |  |
| Cc1cccc(NC(=O)CCc2nnc3ccc(NCc4ccco4)nn23)n1 | -11.2 |  | 4.61 µM [falling, partial curve, poor fit] |
| CCN(CC)c1ccc(/C=C/c2ccc3ccc(OC)cc3[n+]2CC)cc1 | -97.9 | 0.731 µM [falling, full curve, poor fit] | 5.8 µM [falling, full curve] |
| Cc1ccc(C(=O)Nc2nc(=O)n(C(=O)CC(C)C)s2)cc1 | -67.7 | 20.6 µM [falling, partial curve] | 29.1 µM [falling, single point] |
| CCC(=O)Nc1cccc(C2=NOC3(C2)C[C@@H](C(N)=O)N(C(=O)CC(c2ccccc2)c2ccccc2)C3)c1 (stereo partly specified) | 23.4 | 5.8 µM [rising, partial curve, poor fit] |  |
| Cc1cc(NC(=O)CCC(=O)N(c2ccccc2)C(C(=O)NC2CCCC2)c2ccncc2)no1 (stereo unspecified) | -7.01 |  |  |
| CCOC(=O)C1=NN(C(=O)c2ccco2)C2(CC2)C1 | -4.47 | 18.4 µM [rising, partial curve] |  |
| COC(=O)c1ccc(C)c(NC(=O)c2ccc(Cn3cc([N+](=O)[O-])cn3)o2)c1 | 7.66 | 0.651 µM [rising, partial curve] |  |

| Structure (SMILES) | cell number change [%] | AC50 [1] | AC50 [2] |
| --- | --- | --- | --- |
| O=C(CCCc1nc2ccccc2s1)NCc1ccccc1F | 17.2 | 11.6 µM [rising, single point] |  |
| COc1ccc(N2CC(C(=O)N[C@@H](C)C(=O)NC3CCCCC3)CC2=O)cc1 (stereo partly specified) | 12.8 |  | 2.06 µM [rising, partial curve, poor fit] |
| COc1ccc(NC(=O)c2cc(-c3ccccc3)nc3c2cnn3C(C)C)c(OC)c1 | 3.51 | 0.326 µM [rising, full curve, poor fit] | 0.00461 µM [rising, full curve, poor fit] |
| Cc1[nH]n(-c2ccccc2)c(=O)c1Sc1ccc(Cl)cc1 | -2.12 | 2.91 µM [falling, full curve, poor fit] |  |
| Cc1cccc(NC(=O)Cn2cc(C(=O)C3CC3)c3ccccc32)c1 | 20.3 |  |  |
| c1ccc(Cn2nnc3ccccc32)cc1 | 18.2 | 18.4 µM [falling, single point] |  |
| Cc1ccc(C(C)C)c(OCC(=O)Nc2ccc(N3CCN(S(C)(=O)=O)CC3)cc2)c1 | -30.6 |  | 14.6 µM [falling, single point] |
| COc1ccc(N2CCN(C(CNC(=O)C(=O)NCC3CCCO3)c3ccco3)CC2)cc1 (stereo unspecified) | 3.88 |  |  |
| CCN(CCn1cccn1)C(=O)c1cccc(OC2CCN(S(C)(=O)=O)CC2)c1 | 7.91 | 0.461 µM [rising, single point] |  |
| COc1ccc(CNC(=O)CCS(=O)(=O)c2ccc3c(c2)NC(=O)CS3)cc1 | 6.73 | 16.4 µM [rising, partial curve] |  |
| CCN(CC)CCN(C(=O)c1ccc2c(c1)CCCC2)c1nc2cc(OC)c(OC)cc2s1 | -40.6 | 22.4 µM [falling, single point] | 11.2 µM [falling, single point] |
| c1csc(-c2ncc3ccccn23)c1 | 98.8 | 29.1 µM [rising, single point] |  |
| CC1CC1C(=O)Nc1ccc(S(=O)(=O)N2CCCCC2)cc1 (stereo unspecified) | -32.1 |  | 7.31 µM [falling, partial curve] |
| CC(C)(C)SCCNC(=O)/C=C/c1ccc([N+](=O)[O-])cc1 | 117 |  | 6.51 µM [falling, single point] |
| Cc1cc(=O)[nH]c(SCc2cccc(F)c2)n1 | -42.2 | 0.82 µM [falling, full curve] | 0.731 µM [falling, full curve] |
| O=C(CNc1cccc2ccccc12)N/N=C/C(Br)=C/c1ccccc1 | -63.3 | 23.1 µM [falling, partial curve] | 23.1 µM [falling, partial curve] |
| COc1ccc(C2c3ccc(O)cc3Oc3ncn(CCCO)c(=N)c32)cc1 (stereo unspecified) | 8.07 |  |  |
| Cc1cccc(C)c1NC(=O)CNC(=O)C1COc2ccccc2O1 (stereo unspecified) | -24.9 | 6.51 µM [rising, single point] |  |
| O=S(=O)(Nc1cccnc1Cl)c1ccc2c(c1)OCCO2 | 24.2 | 0.231 µM [rising, full curve, poor fit] |  |

Arranged by length of the SMILES (rising): some entries from above.

| Structure (SMILES) | cell number change [%] | AC50 [1] | AC50 [2] |
| --- | --- | --- | --- |
| c1ccc(Cn2nnc3ccccc32)cc1 | 18.2 | 18.4 µM [falling, single point] |  |
| COc1ccc(C2c3ccc(O)cc3Oc3ncn(CCCO)c(=N)c32)cc1 (stereo unspecified) | 8.07 |  |  |
| COc1ccc(CCn2c(C)cc(C(=O)COC(=O)c3ccc(NC(=O)CC#N)cc3)c2C)cc1 | 47.2 |  | 16.4 µM [rising, partial curve] |
